From the supplement of paper PMC12819154, “High-throughput peptide-centric local stability assay extends protein–ligand identification to membrane proteins, tissues and bacteria” (Nature Structural & Molecular Biology, 2025)
Some of the results follow. Most entries show no effect beyond the scatter of the controls.

Chains of the proteins cited; added tags and fusions are not shown. Lines headed by an entry give the natural chain unless they say otherwise; changes in a name come on top.
UniProt Q9Y6X6: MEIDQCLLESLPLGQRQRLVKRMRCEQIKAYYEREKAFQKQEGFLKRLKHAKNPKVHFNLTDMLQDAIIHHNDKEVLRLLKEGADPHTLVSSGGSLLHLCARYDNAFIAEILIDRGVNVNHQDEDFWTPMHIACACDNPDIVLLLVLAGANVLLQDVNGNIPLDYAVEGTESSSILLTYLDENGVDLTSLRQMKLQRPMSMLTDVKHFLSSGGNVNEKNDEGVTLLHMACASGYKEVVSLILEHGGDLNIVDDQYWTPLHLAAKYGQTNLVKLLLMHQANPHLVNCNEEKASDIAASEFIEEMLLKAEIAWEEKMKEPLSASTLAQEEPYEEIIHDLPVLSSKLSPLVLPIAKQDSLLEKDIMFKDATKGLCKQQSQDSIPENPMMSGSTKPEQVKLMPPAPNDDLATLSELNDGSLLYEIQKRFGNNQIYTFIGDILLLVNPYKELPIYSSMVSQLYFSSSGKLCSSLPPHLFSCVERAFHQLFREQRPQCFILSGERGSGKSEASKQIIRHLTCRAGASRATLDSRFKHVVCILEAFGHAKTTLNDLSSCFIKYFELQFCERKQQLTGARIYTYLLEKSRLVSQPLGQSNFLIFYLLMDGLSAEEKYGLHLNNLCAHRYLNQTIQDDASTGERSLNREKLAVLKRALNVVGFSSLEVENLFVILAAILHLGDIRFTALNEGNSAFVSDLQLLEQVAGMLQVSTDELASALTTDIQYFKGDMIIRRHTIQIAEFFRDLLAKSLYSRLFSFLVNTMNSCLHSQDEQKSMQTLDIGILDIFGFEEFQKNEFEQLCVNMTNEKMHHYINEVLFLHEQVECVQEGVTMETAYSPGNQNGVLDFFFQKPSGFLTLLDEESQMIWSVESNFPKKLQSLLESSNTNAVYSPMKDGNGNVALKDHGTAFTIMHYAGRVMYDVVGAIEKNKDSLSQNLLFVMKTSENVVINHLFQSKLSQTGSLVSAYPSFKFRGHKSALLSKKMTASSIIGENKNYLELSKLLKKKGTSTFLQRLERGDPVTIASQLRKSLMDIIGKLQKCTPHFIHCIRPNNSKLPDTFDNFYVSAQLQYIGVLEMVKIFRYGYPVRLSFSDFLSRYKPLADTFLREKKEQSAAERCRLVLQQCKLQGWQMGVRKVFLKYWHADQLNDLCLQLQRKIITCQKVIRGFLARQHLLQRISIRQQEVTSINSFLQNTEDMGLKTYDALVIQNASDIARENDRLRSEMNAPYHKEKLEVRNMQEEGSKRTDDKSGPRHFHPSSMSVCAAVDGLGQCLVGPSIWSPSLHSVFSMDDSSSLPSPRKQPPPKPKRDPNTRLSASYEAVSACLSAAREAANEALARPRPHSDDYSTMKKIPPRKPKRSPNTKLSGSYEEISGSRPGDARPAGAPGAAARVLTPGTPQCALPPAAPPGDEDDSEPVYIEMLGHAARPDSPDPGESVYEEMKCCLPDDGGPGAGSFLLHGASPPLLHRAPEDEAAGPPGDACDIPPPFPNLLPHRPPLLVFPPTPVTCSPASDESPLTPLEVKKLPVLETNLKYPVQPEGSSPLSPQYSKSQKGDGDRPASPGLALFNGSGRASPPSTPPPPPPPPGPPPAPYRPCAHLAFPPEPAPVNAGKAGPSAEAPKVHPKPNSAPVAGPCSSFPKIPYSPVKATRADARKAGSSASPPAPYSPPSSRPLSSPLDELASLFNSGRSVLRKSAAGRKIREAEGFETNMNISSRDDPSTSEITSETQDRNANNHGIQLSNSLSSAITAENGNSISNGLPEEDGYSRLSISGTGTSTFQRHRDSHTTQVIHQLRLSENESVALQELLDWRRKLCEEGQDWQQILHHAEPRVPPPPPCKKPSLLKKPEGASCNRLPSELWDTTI
UniProt Q9Y3C8: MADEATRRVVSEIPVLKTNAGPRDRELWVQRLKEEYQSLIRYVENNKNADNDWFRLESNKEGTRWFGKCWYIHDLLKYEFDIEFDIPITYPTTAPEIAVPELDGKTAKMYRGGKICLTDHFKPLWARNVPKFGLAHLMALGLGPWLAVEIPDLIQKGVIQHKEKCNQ
UniProt Q9Y5R8, whole entry: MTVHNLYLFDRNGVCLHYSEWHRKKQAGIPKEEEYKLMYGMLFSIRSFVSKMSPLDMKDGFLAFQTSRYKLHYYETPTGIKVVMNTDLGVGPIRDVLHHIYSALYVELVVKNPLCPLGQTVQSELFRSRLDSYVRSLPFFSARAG
UniProt Q9Y673: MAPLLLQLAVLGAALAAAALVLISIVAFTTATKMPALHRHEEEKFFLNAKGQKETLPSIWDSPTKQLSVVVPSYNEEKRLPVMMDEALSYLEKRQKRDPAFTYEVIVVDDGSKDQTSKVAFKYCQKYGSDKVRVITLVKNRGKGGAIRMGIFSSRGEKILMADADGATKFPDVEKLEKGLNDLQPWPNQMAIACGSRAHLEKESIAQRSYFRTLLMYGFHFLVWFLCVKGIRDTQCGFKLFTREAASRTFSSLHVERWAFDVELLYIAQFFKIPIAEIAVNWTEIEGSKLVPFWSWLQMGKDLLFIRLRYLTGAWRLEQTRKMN
UniProt Q9Y6M0: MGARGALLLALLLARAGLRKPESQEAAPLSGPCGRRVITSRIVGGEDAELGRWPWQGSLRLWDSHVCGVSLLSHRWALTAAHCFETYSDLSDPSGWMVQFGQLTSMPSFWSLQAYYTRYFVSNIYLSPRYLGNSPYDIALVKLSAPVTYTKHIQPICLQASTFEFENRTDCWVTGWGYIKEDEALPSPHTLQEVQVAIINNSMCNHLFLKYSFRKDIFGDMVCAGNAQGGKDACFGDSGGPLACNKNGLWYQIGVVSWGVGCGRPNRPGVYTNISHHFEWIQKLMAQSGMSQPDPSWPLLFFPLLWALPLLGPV
UniProt Q9Y6Y8: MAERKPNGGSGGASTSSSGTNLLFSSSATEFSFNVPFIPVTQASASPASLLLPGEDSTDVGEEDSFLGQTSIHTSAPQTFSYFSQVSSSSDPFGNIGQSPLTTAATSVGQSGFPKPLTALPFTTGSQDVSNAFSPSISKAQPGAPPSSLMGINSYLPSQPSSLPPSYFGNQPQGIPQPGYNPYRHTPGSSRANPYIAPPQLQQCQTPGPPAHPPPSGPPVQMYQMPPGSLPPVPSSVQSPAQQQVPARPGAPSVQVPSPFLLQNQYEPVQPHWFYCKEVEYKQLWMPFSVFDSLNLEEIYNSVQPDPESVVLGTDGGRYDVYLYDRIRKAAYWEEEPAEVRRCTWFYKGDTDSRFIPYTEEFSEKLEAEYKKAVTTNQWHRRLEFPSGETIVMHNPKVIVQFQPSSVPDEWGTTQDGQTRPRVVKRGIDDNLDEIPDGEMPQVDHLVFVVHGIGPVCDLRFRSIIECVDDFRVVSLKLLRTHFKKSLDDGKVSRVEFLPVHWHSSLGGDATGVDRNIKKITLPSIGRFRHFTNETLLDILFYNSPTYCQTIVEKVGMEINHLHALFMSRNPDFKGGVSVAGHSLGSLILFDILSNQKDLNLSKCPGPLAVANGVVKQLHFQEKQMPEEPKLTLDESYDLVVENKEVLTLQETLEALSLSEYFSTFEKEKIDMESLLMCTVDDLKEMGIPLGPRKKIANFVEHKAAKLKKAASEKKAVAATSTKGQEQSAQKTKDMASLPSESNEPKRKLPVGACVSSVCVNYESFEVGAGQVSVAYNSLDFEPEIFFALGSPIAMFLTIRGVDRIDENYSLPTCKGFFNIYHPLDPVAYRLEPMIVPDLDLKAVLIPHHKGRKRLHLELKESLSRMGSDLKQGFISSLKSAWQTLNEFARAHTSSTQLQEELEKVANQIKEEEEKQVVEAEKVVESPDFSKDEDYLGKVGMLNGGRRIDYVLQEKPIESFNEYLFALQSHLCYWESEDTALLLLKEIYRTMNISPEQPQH
UniProt Q9Y6J9: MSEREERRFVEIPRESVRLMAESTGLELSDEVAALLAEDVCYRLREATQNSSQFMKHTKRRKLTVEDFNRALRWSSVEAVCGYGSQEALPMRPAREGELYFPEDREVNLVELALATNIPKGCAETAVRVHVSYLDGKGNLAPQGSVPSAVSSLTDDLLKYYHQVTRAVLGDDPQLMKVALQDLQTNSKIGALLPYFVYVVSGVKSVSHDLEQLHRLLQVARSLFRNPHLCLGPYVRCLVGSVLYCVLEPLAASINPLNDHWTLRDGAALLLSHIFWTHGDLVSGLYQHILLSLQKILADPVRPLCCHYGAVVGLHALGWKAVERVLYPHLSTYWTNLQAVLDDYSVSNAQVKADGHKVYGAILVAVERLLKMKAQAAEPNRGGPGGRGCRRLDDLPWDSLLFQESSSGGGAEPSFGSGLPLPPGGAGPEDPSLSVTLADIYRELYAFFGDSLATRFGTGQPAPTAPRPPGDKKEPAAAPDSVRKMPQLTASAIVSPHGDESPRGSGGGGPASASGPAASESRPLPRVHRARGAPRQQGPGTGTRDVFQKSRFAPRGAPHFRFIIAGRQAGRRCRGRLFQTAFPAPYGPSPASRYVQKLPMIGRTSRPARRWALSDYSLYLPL
UniProt Q9Y3E7, whole entry: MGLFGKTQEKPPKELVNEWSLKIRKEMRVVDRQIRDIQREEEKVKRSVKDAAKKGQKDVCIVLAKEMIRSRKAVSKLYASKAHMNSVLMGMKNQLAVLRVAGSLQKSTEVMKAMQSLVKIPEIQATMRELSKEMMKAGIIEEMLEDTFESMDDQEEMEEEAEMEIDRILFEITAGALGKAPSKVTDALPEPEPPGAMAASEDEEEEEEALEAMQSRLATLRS
UniProt Q9Y6H3: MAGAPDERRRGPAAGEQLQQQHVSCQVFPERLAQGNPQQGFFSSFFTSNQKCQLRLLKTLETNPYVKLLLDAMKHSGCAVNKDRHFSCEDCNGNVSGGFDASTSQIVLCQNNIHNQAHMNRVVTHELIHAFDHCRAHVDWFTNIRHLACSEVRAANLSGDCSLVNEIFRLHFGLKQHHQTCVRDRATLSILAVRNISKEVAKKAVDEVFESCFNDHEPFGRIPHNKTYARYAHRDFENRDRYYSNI
UniProt Q9Y4P1: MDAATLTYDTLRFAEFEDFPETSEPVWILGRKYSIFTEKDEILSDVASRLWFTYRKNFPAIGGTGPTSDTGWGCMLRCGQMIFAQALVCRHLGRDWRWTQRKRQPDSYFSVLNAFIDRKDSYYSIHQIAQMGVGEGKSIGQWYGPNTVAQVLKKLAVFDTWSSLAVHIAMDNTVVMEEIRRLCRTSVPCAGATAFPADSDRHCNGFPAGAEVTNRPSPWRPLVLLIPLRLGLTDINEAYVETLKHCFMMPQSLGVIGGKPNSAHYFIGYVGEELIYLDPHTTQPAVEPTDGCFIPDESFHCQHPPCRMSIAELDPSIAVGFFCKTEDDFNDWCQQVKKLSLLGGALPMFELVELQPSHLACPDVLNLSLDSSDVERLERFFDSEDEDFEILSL

compound: CN[C@@H]1C[C@H]2O[C@@](C)([C@@H]1OC)n1c3ccccc3c3c4c(c5c6ccccc6n2c5c31)C(=O)NC4 [staurosporine]; assay: log2 fold change of tryptic peptide abundance, ligand vs vehicle (limited proteolysis) (log2 ratio); higher = more trypsin-susceptible (destabilized); conditions: ligand concentration: 20 uM; sample: K562 cleared lysate; digestion: 4 min, 22 C (HT-PELSA RT4min, Orbitrap Astral)

| Target | log2 fold change |
| --- | --- |
| UniProt Q9Y6X6 (peptide sequence: LSPLVLPIAK, peptide start residue: 344) | -0.164 |
| UFC1 (peptide sequence: GGKICLTDHFKPLWAR, peptide start residue: 112) (UniProt Q9Y3C8) | -0.856 |
| TRAPPC1 (peptide sequence: SLPFFSAR, peptide start residue: 136) (UniProt Q9Y5R8) | 0.402 |
| ALG5 (peptide sequence: HEEEKFFLNAK, peptide start residue: 40) (UniProt Q9Y673) | -0.703 |
| PRSS21 (peptide sequence: LSAPVTYTK, peptide start residue: 143) (UniProt Q9Y6M0) | -0.111 |
| SEC23IP (peptide sequence: TKDMASLPSESNEPK, peptide start residue: 732) (UniProt Q9Y6Y8) | -0.267 |
| TACC3 (peptide sequence: KQSLYLKFDPLLR, peptide start residue: 556) (UniProt Q9Y6A5) | -0.63 |
| TAF6L (peptide sequence: VYGAILVAVER, peptide start residue: 358) (UniProt Q9Y6J9) | -0.425 |
| CHMP3 (peptide sequence: AHMNSVLMGMK, peptide start residue: 82) (UniProt Q9Y3E7) | 0.196 |
| UniProt Q9Y6H3 (peptide sequence: RGPAAGEQLQQQHVSCQVFPER, peptide start residue: 10) | -0.352 |
| ATG4B (peptide sequence: SIGQWYGPNTVAQVLKK, peptide start residue: 138) (UniProt Q9Y4P1) | 0.217 |

Look-ups from the entries so far.
Under log2 fold change, UFC1 (peptide sequence: GGKICLTDHFKPLWAR, peptide start residue: 112) (UniProt Q9Y3C8) reads -0.856
Under log2 fold change, UniProt Q9Y6X6 (peptide sequence: LSPLVLPIAK, peptide start residue: 344) reads -0.164
